Measured values from article PMC10526669.
These are yes or no findings as the source states them, for the method shown. In cells and extracts the contact can be indirect. Some binding calls cover weakened binding; strength is not graded here.

By UniProt entry, the sequences of proteins in these tests, tags left out.
UniProt P40763: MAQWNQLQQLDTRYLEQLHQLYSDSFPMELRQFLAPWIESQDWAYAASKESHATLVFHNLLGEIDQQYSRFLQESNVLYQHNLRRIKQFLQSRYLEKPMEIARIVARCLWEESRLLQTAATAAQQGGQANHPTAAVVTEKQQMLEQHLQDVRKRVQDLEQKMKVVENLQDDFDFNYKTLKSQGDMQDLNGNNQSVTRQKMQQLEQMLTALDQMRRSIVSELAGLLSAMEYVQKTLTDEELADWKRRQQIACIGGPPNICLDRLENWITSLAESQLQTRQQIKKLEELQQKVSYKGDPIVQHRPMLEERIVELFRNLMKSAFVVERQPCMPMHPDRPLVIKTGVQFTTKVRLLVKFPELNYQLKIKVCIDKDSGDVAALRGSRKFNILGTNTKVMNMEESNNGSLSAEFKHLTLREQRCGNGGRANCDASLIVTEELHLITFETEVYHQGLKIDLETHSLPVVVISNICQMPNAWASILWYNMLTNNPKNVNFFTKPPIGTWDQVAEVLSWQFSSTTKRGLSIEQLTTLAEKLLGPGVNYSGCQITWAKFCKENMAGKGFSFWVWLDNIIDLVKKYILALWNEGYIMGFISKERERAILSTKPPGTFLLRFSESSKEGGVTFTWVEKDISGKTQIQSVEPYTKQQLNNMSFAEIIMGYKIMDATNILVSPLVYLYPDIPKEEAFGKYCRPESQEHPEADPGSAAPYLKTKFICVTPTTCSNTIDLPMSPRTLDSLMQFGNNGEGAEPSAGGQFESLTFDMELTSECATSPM
UniProt P52294: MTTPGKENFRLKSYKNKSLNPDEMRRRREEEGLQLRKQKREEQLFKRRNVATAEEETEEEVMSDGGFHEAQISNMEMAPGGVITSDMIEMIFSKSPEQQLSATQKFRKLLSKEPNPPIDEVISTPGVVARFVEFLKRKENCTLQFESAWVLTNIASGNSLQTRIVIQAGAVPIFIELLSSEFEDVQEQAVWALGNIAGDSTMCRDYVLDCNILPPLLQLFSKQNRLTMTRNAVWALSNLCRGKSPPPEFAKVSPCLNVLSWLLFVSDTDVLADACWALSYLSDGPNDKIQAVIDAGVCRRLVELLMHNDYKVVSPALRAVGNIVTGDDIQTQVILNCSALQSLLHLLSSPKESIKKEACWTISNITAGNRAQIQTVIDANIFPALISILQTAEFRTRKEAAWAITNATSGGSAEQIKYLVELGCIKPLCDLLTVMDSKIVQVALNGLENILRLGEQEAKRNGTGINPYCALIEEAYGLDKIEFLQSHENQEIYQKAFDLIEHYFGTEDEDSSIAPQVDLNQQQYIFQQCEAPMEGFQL

B1: Thioredoxin-1 (Trx-1), endogenous human (protein, UniProt P10599 1-105)
chain: MVKQIESKTAFQEALDAAGDKLVVVDFSATWCGPCKMIKPFFHSLSEKYSNVIFLEVDVDDCQDVASECEVKCMPTFQFFKKGQKVGEFSGANKEKLEATINELV
B2: WT-Trx-1 (human wild-type Trx-1, lentivirally expressed) (protein, UniProt P10599 1-105)
chain: MVKQIESKTAFQEALDAAGDKLVVVDFSATWCGPCKMIKPFFHSLSEKYSNVIFLEVDVDDCQDVASECEVKCMPTFQFFKKGQKVGEFSGANKEKLEATINELV

Columns and labels:
[1] = molecular target: Signal transducer and activator of transcription 3 (STAT3), endogenous human (human (endogenous in HT-29, SW480 and human CRC tissue)) (UniProt P40763); experiment: co-IP; nuclear and cytosolic extracts of HT-29 cells without or with IL-6; IP with anti-Trx-1 or anti-STAT3; immunoblot
[2] = molecular target: Signal transducer and activator of transcription 3 (STAT3), endogenous human (human (endogenous in HT-29, SW480 and human CRC tissue)) (UniProt P40763); experiment: co-IP; human CRC tissue lysates; IP with anti-Trx-1 or anti-STAT3 antibody; immunoblot with anti-pSTAT3, anti-Kpnα1 or anti-Trx-1
[3] = molecular target: Signal transducer and activator of transcription 3 (STAT3), endogenous human (human (endogenous in HT-29, SW480 and human CRC tissue)) (UniProt P40763); experiment: co-IP; endogenous proteins in total lysates (500 μg) of HT-29 and SW480 cells treated with 20 ng/mL IL-6 or vehicle for 2 h; IP with anti-Trx-1 or anti-STAT3 antibody or control IgG on protein G beads, 1 h at room temperature; immunoblot
[4] = molecular target: karyopherin α1 (Kpnα1), endogenous human (human (endogenous in HT-29, SW480 and human CRC tissue)) (UniProt P52294); experiment: co-IP; lysates of HT-29 cells stably expressing WT-Trx-1, MT-Trx-1, shTrx-1 or control vector, without or with IL-6; IP with anti-Trx-1 or anti-Kpnα1 antibody; immunoblot

| Binder | binding [1] | binding [2] | binding [3] | binding [4] |
| --- | --- | --- | --- | --- |
| B1 | binds | binds | binds |  |
| B2 |  |  |  | binds |
